Assay results reported in the supplement of paper PMC12067093, “Discovery and optimisation of a covalent ligand for TRIM25 and its application to targeted protein ubiquitination” (Chemical Science, 2025).
The other results are listed elsewhere or left out.

Protein sequences, listed by entry. Tags and fused reporters are not part of them. Lines headed by an entry give the natural chain unless they say otherwise; changes in a name come on top.
UniProt P31939: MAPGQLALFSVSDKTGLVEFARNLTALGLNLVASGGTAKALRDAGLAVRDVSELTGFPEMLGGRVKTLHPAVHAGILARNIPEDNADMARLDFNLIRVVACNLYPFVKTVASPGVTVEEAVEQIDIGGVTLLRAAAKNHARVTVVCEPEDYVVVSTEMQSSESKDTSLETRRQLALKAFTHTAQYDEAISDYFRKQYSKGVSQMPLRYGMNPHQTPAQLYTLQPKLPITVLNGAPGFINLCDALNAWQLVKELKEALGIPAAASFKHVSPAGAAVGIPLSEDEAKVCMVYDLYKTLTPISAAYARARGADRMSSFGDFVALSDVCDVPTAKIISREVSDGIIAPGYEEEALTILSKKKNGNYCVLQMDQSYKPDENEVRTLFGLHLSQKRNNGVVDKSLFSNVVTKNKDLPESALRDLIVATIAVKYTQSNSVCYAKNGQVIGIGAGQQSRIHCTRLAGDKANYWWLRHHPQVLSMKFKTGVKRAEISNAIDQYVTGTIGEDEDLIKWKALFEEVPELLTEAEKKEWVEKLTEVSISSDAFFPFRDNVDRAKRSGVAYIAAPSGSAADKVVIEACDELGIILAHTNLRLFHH
UniProt Q5TC12: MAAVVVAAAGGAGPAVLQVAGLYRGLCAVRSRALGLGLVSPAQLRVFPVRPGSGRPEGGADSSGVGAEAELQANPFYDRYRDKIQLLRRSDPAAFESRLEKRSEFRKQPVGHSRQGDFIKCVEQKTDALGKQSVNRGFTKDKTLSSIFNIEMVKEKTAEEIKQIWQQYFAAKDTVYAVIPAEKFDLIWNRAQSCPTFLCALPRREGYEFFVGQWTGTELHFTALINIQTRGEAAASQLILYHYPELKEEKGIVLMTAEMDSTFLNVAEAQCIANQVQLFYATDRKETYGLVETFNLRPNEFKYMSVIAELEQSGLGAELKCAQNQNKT
UniProt Q96DT6: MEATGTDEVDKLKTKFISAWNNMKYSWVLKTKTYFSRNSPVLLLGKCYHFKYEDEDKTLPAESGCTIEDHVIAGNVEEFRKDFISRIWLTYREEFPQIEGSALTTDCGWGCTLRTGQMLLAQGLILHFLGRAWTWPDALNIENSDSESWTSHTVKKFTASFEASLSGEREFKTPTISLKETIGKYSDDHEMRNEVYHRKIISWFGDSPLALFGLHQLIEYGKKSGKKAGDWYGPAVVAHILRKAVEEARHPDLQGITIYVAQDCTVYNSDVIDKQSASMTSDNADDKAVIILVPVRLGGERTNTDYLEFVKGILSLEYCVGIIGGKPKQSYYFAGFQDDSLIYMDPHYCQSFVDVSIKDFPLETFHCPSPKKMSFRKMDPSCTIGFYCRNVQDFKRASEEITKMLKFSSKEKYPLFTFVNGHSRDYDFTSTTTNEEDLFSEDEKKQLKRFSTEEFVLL
UniProt O95352: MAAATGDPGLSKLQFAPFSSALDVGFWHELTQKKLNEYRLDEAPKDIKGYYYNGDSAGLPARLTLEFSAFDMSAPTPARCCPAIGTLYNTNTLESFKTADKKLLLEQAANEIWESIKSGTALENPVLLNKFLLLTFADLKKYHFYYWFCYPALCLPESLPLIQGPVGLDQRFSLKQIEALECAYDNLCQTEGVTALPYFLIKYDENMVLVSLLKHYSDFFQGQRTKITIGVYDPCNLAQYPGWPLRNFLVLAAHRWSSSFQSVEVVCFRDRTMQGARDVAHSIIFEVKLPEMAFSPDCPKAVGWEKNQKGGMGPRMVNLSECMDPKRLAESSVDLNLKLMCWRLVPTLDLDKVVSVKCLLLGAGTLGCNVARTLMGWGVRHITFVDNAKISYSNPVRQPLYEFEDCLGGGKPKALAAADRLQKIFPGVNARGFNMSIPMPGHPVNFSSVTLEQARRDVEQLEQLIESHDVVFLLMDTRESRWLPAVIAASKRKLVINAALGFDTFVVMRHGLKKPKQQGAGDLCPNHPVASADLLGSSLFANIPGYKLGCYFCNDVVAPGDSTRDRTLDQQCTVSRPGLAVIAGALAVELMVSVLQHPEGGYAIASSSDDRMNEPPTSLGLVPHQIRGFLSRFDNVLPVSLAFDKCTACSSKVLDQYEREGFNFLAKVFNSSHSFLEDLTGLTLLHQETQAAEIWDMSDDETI
UniProt P10275: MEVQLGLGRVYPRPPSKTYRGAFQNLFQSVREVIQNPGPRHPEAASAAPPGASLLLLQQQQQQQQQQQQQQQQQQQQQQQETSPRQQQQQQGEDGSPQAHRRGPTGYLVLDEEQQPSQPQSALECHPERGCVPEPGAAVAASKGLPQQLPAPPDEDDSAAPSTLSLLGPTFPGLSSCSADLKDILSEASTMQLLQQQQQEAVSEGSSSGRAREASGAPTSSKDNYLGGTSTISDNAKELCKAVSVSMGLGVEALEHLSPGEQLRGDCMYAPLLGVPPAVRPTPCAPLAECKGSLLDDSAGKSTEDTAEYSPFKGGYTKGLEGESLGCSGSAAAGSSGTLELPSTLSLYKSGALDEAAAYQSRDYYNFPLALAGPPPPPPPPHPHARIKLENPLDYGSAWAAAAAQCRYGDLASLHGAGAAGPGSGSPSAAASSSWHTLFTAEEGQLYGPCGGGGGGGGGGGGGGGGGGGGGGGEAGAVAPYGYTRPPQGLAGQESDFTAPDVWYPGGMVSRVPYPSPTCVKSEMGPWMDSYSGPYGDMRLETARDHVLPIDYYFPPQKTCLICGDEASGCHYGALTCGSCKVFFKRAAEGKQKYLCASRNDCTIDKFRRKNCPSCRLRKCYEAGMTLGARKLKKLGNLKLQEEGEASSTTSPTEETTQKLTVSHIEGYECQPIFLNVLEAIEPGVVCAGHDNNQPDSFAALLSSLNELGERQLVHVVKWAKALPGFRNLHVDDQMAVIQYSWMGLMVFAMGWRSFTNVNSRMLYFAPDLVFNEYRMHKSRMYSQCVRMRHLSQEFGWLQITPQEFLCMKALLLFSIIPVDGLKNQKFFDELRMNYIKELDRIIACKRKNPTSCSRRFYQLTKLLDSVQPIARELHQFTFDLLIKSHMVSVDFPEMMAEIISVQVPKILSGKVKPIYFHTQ
UniProt O95671: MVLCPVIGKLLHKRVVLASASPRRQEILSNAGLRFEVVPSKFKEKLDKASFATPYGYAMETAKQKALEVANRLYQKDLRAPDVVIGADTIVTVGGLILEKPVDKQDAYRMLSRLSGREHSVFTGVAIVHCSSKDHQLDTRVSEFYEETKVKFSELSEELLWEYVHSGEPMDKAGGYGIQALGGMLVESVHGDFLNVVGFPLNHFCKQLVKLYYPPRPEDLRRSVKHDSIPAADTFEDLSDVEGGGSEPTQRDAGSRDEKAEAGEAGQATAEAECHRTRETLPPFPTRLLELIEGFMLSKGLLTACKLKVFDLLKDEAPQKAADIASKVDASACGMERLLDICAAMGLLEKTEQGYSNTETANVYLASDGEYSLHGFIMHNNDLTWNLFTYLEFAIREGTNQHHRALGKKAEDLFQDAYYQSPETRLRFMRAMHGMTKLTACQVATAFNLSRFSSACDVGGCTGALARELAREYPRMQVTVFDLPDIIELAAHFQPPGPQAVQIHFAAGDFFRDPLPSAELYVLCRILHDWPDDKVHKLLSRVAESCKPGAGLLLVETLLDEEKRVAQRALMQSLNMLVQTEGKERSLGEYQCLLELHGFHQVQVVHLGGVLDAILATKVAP
UniProt Q8NBU5: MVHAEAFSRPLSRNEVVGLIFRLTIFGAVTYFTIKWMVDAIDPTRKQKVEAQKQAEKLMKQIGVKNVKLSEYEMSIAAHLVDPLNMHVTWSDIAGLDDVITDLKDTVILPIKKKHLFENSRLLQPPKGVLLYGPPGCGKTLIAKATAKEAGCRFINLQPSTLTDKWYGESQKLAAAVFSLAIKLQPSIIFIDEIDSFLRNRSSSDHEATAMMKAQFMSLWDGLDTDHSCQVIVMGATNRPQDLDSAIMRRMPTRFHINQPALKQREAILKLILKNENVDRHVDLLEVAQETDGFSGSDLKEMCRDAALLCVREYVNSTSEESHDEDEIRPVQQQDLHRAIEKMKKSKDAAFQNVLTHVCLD
UniProt Q9BZE9, whole entry, looked up: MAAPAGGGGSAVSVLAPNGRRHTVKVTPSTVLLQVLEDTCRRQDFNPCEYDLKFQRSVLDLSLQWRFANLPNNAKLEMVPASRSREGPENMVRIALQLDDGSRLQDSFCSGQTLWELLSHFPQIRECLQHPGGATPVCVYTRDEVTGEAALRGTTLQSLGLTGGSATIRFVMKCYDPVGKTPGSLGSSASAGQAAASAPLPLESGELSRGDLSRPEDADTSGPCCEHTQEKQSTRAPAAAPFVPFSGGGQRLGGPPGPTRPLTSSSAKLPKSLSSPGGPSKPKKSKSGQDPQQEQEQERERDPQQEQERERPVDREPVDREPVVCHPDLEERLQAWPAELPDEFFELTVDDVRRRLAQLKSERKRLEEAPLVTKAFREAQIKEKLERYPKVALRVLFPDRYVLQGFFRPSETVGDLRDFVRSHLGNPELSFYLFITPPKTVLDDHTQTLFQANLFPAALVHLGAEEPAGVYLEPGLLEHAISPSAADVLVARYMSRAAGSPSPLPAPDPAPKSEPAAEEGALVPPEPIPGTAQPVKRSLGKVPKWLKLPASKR
UniProt Q9UI12, whole entry, looked up: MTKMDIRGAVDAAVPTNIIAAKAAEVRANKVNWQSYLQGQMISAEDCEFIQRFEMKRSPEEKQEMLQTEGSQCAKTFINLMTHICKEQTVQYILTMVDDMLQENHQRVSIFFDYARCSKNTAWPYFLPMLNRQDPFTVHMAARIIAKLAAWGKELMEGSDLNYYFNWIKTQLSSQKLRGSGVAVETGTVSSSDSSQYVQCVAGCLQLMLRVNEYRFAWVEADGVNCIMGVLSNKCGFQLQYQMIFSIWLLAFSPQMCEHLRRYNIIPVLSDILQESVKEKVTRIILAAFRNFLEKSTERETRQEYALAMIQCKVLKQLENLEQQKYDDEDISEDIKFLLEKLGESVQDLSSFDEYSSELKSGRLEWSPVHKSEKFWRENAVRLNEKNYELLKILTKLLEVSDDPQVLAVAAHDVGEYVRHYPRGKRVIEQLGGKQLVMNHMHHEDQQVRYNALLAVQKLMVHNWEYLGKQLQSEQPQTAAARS
UniProt Q6DD88: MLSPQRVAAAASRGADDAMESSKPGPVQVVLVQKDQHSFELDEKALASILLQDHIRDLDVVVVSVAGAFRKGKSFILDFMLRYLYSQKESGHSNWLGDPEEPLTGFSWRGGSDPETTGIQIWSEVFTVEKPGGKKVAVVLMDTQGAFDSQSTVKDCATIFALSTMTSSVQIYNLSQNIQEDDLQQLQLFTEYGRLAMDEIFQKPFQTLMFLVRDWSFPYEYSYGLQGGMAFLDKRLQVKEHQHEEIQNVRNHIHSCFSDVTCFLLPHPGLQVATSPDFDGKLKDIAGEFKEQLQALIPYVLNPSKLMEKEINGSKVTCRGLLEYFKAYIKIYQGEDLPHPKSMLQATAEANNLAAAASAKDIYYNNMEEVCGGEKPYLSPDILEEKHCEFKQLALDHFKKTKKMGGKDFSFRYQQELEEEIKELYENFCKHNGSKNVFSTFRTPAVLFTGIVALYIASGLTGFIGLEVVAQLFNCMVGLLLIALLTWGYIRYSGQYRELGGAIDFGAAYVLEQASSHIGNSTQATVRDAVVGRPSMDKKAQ
UniProt Q12797: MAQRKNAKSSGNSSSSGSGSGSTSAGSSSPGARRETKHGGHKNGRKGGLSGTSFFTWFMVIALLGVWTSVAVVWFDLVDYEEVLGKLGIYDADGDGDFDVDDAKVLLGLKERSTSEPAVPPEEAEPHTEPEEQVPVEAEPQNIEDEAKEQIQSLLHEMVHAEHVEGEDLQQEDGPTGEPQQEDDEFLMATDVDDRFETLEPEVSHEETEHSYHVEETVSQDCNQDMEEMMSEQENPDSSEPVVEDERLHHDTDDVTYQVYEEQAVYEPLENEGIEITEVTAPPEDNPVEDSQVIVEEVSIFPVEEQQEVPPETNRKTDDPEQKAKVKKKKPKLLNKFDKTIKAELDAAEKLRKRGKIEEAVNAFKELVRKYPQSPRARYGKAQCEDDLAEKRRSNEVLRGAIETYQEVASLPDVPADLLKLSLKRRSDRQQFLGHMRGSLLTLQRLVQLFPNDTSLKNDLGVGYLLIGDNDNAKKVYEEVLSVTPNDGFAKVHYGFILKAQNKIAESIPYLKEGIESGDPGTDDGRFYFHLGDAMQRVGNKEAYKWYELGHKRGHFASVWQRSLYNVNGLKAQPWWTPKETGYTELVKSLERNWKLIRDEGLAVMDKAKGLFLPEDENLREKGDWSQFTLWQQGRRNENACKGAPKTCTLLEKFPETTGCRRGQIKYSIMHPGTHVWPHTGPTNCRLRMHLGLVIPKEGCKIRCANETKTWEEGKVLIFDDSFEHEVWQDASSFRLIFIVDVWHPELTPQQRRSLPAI

Compound: Cc1cc(ccc1-c1ccccc1)C(=O)N1CCCN(CC1)C(=O)CCl [compound 10]
Assay: probe-labelled cysteine peptide fold change vs DMSO (competition) (log2 fold change); higher = less target engagement (more negative = stronger competition)
Settings: THP-1, incubation time: 4 h
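Note: competitive profiling in live THP-1 cells: cysteine peptides tagged with an iodoacetamide desthiobiotin (IA-DTB) probe, intensity after compound treatment relative to DMSO-treated cells.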

Target | probe-labelled cysteine peptide fold change (10 µM) | probe-labelled cysteine peptide fold change (50 µM)
ATIC_P31939_363_KKNGNYCVLQMDQSYKPDENEVR (UniProt P31939) | 0.168 | -0.0544
ATPAF1_Q5TC12_321_CAQNQNK (UniProt Q5TC12) | -0.351 | -0.446
ATG4C_Q96DT6_367_DFPLETFHCPSPK (UniProt Q96DT6) | 0.0833 | 0.0549
ATM_Q13315_12_SLVLNDLLICCR (UniProt Q13315) | 0.0972 | -0.269
ATG7_O95352_358_CLLLGAGTLGCNVAR (UniProt O95352) | -0.0777 | -0.0827
AR_P10275_602_NDCTIDK (UniProt P10275) | -0.153 | -0.336
ATG16L1_Q676U5_145_IAECLQTISDLETECLDLR (UniProt Q676U5) | 0.211 | 0.204
ASMTL_O95671_546_VAESCKPGAGLLLVETLLDEEKR (UniProt O95671) | 0.0133 | -0.396
ATAD1_Q8NBU5_359_DAAFQNVLTHVCLD (UniProt Q8NBU5) | -0.369 | -0.114
ATP8B2_P98198_426_CSINGHSYGDVFDVLGHK (UniProt P98198) | 0.32 | 0.371
ASPSCR1_Q9BZE9_224+225_GDLSRPEDADTSGPCCEHTQEK (UniProt Q9BZE9) | -0.786 | -1.37
ATP6V1H_Q9UI12_47_VNWQSYLQGQMISAEDCEFIQR (UniProt Q9UI12) | 0.306 | 0.143
ATL3_Q6DD88_429_ELYENFCK (UniProt Q6DD88) | 0.124 | 0.131
ASPH_Q12797_660_FPETTGCR (UniProt Q12797) | -0.16 | -0.00818
